{"sequences": {"note": "Amino acid sequences for entries named in this document (tags omitted). A change or cut given only in a name is not applied to a line headed by its entry.", "UniProt Q03181": "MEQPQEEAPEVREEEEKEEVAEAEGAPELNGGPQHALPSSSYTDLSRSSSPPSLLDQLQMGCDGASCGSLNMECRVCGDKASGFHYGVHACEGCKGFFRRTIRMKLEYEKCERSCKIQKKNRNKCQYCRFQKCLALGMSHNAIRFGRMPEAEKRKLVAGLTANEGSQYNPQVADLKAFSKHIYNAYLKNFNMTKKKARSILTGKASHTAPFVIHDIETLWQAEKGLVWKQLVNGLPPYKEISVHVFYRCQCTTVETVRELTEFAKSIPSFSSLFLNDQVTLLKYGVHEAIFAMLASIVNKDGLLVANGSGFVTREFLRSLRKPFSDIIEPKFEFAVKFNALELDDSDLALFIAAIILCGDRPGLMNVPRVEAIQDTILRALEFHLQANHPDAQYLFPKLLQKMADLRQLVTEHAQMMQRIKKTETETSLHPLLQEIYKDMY", "UniProt P17676": "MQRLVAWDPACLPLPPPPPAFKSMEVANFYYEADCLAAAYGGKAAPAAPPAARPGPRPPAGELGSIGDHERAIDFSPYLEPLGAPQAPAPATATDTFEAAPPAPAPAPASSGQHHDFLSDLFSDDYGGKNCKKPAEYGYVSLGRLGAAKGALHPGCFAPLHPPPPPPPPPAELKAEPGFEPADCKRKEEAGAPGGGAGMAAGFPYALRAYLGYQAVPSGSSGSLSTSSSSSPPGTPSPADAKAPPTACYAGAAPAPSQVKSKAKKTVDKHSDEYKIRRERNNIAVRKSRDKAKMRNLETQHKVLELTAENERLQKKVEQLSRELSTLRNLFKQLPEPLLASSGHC", "UniProt P16220": "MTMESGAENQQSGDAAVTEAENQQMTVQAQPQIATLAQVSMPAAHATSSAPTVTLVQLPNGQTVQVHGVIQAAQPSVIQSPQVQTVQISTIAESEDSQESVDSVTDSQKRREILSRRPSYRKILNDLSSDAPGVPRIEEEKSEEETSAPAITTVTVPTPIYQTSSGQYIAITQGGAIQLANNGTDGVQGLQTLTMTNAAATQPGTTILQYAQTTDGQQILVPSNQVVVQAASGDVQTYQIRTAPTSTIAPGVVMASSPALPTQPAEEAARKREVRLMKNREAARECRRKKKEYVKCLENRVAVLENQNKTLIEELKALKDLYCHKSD", "UniProt P19793": "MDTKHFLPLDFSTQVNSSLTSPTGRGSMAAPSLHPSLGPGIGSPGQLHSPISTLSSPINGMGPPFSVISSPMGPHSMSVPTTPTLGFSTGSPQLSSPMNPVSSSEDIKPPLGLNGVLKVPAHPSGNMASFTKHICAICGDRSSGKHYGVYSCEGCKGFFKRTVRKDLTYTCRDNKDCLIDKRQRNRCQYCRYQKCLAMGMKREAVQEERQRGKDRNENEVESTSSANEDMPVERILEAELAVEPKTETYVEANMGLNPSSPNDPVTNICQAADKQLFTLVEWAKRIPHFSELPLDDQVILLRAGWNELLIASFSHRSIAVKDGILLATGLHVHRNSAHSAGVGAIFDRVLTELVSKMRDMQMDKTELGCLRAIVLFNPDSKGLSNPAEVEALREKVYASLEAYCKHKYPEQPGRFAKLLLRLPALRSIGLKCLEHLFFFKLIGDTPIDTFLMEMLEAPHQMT", "UniProt Q09472": "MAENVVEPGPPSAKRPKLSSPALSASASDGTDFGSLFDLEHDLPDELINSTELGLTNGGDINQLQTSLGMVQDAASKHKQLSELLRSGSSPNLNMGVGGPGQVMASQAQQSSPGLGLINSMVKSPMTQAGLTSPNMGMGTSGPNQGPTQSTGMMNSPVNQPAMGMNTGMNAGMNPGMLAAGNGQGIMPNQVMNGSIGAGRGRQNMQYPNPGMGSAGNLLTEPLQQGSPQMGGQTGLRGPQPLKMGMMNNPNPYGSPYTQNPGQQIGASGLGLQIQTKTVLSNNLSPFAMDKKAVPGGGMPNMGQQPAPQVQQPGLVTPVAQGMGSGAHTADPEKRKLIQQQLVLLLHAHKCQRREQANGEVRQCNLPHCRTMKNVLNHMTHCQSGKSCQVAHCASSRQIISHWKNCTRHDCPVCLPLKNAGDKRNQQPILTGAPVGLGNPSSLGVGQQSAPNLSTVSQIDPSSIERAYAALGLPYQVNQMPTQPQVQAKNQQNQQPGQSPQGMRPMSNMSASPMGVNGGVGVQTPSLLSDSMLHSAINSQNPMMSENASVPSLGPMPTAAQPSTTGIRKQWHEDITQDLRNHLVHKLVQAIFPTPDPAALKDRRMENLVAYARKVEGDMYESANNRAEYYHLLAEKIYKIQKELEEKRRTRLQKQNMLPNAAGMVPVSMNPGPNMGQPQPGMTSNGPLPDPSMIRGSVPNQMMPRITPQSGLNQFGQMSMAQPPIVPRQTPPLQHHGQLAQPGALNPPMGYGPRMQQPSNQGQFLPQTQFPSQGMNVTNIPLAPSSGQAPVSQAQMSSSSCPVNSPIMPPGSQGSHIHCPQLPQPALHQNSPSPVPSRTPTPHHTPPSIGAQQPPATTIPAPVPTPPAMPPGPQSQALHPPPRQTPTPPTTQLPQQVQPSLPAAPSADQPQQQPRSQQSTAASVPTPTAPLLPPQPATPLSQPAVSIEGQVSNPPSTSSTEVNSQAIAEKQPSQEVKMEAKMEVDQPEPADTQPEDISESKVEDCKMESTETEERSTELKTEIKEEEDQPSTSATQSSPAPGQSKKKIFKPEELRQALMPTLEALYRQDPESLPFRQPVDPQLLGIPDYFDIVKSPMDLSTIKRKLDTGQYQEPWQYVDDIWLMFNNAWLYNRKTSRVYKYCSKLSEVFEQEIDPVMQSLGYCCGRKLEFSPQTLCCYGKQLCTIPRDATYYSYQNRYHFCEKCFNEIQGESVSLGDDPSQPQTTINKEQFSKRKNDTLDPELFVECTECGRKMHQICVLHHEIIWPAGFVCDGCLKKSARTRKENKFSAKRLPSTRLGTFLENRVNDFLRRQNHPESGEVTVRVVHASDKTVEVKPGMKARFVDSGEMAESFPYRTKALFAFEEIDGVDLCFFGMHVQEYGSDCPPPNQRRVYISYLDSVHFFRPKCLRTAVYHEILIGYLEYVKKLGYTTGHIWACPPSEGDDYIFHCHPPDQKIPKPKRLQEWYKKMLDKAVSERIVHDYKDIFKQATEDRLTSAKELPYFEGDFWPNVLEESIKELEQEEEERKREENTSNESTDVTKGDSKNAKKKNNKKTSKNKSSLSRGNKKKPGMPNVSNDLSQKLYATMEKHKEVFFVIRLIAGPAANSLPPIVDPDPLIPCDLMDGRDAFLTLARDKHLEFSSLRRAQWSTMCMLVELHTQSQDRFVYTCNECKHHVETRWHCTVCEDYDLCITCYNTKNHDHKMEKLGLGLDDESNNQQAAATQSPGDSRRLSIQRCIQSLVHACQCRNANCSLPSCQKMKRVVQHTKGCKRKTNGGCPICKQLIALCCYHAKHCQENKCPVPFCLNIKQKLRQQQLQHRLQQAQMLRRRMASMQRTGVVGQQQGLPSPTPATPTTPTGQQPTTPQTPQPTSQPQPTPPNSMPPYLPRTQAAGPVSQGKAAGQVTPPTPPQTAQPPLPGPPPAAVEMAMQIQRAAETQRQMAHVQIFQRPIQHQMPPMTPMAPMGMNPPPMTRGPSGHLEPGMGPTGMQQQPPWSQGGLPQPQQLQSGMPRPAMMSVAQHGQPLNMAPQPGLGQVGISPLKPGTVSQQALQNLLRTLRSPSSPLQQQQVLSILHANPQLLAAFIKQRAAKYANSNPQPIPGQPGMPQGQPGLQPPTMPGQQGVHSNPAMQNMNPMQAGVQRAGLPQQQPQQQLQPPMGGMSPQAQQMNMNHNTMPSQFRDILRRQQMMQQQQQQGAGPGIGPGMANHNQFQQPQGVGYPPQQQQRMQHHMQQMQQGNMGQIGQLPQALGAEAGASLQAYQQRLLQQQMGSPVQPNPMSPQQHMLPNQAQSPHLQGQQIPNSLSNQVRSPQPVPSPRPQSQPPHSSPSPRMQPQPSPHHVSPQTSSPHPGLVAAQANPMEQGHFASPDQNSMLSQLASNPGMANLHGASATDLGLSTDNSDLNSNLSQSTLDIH", "UniProt Q96EB6": "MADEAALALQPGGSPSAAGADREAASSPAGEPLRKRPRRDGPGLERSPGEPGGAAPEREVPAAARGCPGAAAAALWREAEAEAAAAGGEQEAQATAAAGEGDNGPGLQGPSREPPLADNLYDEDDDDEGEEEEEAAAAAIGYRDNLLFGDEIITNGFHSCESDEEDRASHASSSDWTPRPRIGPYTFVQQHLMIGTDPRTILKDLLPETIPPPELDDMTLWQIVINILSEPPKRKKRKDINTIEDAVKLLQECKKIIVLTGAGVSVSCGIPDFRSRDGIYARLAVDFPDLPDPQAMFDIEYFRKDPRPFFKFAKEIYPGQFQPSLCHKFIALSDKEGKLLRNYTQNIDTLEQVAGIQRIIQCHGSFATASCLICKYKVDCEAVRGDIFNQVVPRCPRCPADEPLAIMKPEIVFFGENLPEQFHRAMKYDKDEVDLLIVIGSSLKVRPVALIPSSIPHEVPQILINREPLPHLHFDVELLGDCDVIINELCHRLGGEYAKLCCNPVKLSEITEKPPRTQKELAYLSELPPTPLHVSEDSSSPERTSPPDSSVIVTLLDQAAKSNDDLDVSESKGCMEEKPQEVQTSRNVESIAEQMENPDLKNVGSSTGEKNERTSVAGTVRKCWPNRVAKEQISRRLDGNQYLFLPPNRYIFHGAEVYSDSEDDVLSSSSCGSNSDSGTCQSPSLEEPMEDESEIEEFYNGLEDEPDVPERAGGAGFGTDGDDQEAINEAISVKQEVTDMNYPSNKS", "UniProt P37238": "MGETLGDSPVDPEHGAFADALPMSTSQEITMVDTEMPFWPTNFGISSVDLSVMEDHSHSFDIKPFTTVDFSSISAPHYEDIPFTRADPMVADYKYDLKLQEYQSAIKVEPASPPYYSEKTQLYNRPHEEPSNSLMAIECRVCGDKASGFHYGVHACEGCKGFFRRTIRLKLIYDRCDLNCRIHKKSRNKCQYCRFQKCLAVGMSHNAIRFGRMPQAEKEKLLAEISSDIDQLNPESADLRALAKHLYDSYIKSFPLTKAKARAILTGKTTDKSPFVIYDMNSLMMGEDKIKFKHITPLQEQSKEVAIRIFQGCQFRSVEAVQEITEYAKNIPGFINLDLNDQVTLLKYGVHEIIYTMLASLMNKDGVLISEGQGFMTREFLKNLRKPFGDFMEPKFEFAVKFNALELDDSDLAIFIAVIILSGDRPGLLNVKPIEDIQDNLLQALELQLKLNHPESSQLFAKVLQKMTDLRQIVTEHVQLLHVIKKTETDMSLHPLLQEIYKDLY", "UniProt Q9QXG4": "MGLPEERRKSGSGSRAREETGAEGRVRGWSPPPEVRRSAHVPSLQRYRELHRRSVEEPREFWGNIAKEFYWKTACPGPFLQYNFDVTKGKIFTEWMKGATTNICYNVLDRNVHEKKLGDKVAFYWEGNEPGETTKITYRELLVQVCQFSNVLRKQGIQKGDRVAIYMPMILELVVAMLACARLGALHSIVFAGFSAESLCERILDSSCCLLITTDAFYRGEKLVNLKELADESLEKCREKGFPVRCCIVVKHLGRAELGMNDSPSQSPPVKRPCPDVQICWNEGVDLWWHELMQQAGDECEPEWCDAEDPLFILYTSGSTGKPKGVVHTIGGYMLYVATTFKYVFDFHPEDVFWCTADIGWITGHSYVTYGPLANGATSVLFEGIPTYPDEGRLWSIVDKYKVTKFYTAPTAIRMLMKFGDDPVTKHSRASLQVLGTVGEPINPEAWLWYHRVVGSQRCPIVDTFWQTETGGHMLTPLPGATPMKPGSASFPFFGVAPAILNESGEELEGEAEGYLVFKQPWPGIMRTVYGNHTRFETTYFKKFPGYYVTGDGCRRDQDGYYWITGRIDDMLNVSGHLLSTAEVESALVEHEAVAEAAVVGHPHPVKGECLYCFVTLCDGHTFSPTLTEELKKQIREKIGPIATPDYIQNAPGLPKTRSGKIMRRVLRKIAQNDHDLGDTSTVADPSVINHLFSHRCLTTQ"}, "source": "paper PMC11043345", "molecules": {"B1": {"name": "Sin3A, endogenous mouse (protein, UniProt Q60520 1-1274)", "chain": "MKRRLDDQESPVYAAQQRRIPGSTEAFSHQHRVLAPAPPVYEAVSETMQSATGIQYSVAPNYQVSAVPQSSGSHGPAIAAVHSSHHHPTAVQPHGGQVVQSHAHPAPPVAPVQGQQQFQRLKVEDALSYLDQVKLQFGSQPQVYNDFLDIMKEFKSQSIDTPGVISRVSQLFKGHPDLIMGFNTFLPPGYKIEVQTNDMVNVTTPGQVHQIPTHGIQPQPQPPPQHPSQPSSQSAPTPAQPAPQPTAAKVSKPSQLQAHTPASQQTPPLPPYASPRSPPVQPHTPVTISLGTAPSLQNNQPVEFNHAINYVNKIKNRFQGQPDIYKAFLEILHTYQKEQRNAKEAGGNYTPALTEQEVYAQVARLFKNQEDLLSEFGQFLPDANSSVLLSKTTAEKVDSVRNDHGGTVKKPQLNNKPQRPSQNGCQIRRHSGTGATPPVKKKPKLMSLKESSMADASKHGVGTESLFFDKVRKALRSAEAYENFLRCLVIFNQEVISRAELVQLVSPFLGKFPELFNWFKNFLGYKESVHLESFPKERATEGIAMEIDYASCKRLGSSYRALPKSYQQPKCTGRTPLCKEVLNDTWVSFPSWSEDSTFVSSKKTQYEEHIYRCEDERFELDVVLETNLATIRVLEAIQKKLSRLSAEEQAKFRLDNTLGGTSEVIHRKALQRIYADKAADIIDGLRKNPSIAVPIVLKRLKMKEEEWREAQRGFNKVWREQNEKYYLKSLDHQGINFKQNDTKVLRSKSLLNEIESIYDERQEQATEENAGVPVGPHLSLAYEDKQILEDAAALIIHHVKRQTGIQKEDKYKIKQIMHHFIPDLLFAQRGDLSDVEEEEEEEMDVDEATGAPKKHNGVGGSPPKSKLLFSNTAAQKLRGMDEVYNLFYVNNNWYIFMRLHQILCLRLLRICSQAERQIEEENREREWEREVLGIKRDKSDSPAIQLRLKEPMDVDVEDYYPAFLDMVRSLLDGNIDSSQYEDSLREMFTIHAYIAFTMDKLIQSIVRQLQHIVSDEVCVQVTDLYLAENNNGATGGQLNSQTSRSLLESAYQRKAEQLMSDENCFKLMFIQSQGQVQLTVELLDTEEENSDDPVEAERWSDYVERYMSSDTTSPELREHLAQKPVFLPRNLRRIRKCQRGREQQEKEGKEGNSKKTMENVESLDKLECRFKLNSYKMVYVIKSEDYMYRRTALLRAHQSHERVSKRLHQRFQAWVDKWTKEHVPREMAAETSKWLMGEGLEGLVPCTTTCDTETLHFVSINKYRVKYGTVFKAP"}}, "key": {"[1]": {"biological_target": "T1, PPARα (UniProt Q07869)", "T1 sequence": "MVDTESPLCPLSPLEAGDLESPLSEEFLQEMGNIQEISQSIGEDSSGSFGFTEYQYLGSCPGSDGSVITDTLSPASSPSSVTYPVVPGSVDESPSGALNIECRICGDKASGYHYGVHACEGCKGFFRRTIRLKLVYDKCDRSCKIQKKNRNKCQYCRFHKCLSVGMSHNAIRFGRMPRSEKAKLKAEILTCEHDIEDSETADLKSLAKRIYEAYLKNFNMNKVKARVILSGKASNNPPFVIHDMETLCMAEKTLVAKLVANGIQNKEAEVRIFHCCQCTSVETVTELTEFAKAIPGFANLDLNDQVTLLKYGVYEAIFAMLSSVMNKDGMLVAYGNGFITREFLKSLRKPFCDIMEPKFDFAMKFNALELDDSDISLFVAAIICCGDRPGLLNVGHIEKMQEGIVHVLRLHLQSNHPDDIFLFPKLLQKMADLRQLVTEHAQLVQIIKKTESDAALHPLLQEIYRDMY", "test": "split reporter; BiFC in HEK293T cells transfected with pBiFC-VN173 and pBiFC-VC155 fusions, imaged after 24 h (LSM780), DAPI for the nucleus; in some panels 10 μM rosiglitazone or GW9662 for 16 h or 25 mM D-mannose"}, "[2]": {"biological_target": "PPARβ (UniProt Q03181)", "test": "split reporter; BiFC in HEK293T cells transfected with pBiFC-VN173 and pBiFC-VC155 fusions, imaged after 24 h (LSM780), DAPI for the nucleus; in some panels 10 μM rosiglitazone or GW9662 for 16 h or 25 mM D-mannose"}, "[3]": {"biological_target": "CEBPβ (UniProt P17676)", "test": "co-IP; exogenous IP from transfected HEK293T cells lysed in IP buffer; indicated antibodies overnight at 4 °C, protein A or G agarose beads 3 h, 5 washes, immunoblot; in some panels rosiglitazone or GW9662 (0-10 μM, 16 h), 25 mM D-mannose, or co-expressed P300, SIRT1, ACSS2 or PPARγ mutants"}, "[4]": {"biological_target": "CREB (UniProt P16220)", "test": "co-IP; exogenous IP from transfected HEK293T cells lysed in IP buffer; indicated antibodies overnight at 4 °C, protein A or G agarose beads 3 h, 5 washes, immunoblot; in some panels rosiglitazone or GW9662 (0-10 μM, 16 h), 25 mM D-mannose, or co-expressed P300, SIRT1, ACSS2 or PPARγ mutants"}, "[5]": {"biological_target": "FLAG-tagged RXRα (UniProt P19793)", "test": "co-IP; exogenous IP from transfected HEK293T cells lysed in IP buffer; indicated antibodies overnight at 4 °C, protein A or G agarose beads 3 h, 5 washes, immunoblot; in some panels rosiglitazone or GW9662 (0-10 μM, 16 h), 25 mM D-mannose, or co-expressed P300, SIRT1, ACSS2 or PPARγ mutants"}, "[6]": {"biological_target": "P300 (UniProt Q09472)", "test": "co-IP; exogenous IP from transfected HEK293T cells lysed in IP buffer; indicated antibodies overnight at 4 °C, protein A or G agarose beads 3 h, 5 washes, immunoblot; in some panels rosiglitazone or GW9662 (0-10 μM, 16 h), 25 mM D-mannose, or co-expressed P300, SIRT1, ACSS2 or PPARγ mutants"}, "[7]": {"biological_target": "T1, PPARα", "test": "co-IP; exogenous IP from transfected HEK293T cells lysed in IP buffer; indicated antibodies overnight at 4 °C, protein A or G agarose beads 3 h, 5 washes, immunoblot; in some panels rosiglitazone or GW9662 (0-10 μM, 16 h), 25 mM D-mannose, or co-expressed P300, SIRT1, ACSS2 or PPARγ mutants"}, "[8]": {"biological_target": "PPARβ (UniProt Q03181)", "test": "co-IP; exogenous IP from transfected HEK293T cells lysed in IP buffer; indicated antibodies overnight at 4 °C, protein A or G agarose beads 3 h, 5 washes, immunoblot; in some panels rosiglitazone or GW9662 (0-10 μM, 16 h), 25 mM D-mannose, or co-expressed P300, SIRT1, ACSS2 or PPARγ mutants"}, "[9]": {"biological_target": "SIRT1 (UniProt Q96EB6)", "test": "co-IP; exogenous IP from transfected HEK293T cells lysed in IP buffer; indicated antibodies overnight at 4 °C, protein A or G agarose beads 3 h, 5 washes, immunoblot; in some panels rosiglitazone or GW9662 (0-10 μM, 16 h), 25 mM D-mannose, or co-expressed P300, SIRT1, ACSS2 or PPARγ mutants"}, "[10]": {"biological_target": "PPARγ, endogenous mouse (mouse (endogenous in BAT, ingWAT and beige adipocytes)) (UniProt P37238)", "test": "co-IP; IP of PPARγ from differentiated beige adipocytes of wild type or Acss2-/- mice, immunoblot"}, "[11]": {"biological_target": "PPARγ, endogenous mouse (mouse (endogenous in BAT, ingWAT and beige adipocytes)) (UniProt P37238)", "test": "co-IP; endogenous IP from mouse BAT and ingWAT lysates in IP buffer; indicated antibodies overnight at 4 °C, protein A or G agarose beads 3 h, 5 washes, immunoblot"}}, "note": "No constants are given. Whether binding was seen depends on the method and setting. In cells and extracts the contact can be indirect. Some binding calls cover weakened binding; strength is not graded here."}
{"molecule": "FLAG-tagged full length human ACSS2 (VN173-Flag-ACSS2) (from UniProt Q9NR19-1 1-701)", "values": [{"measurement": "binding", "setting": "[1]", "result": "binds"}, {"measurement": "binding", "setting": "[2]", "result": "binds"}, {"measurement": "binding", "setting": "[3]", "result": "no binding"}, {"measurement": "binding", "setting": "[4]", "result": "no binding"}, {"measurement": "binding", "setting": "[5]", "result": "binds"}, {"measurement": "binding", "setting": "[6]", "result": "binds"}, {"measurement": "binding", "setting": "[7]", "result": "binds"}, {"measurement": "binding", "setting": "[8]", "result": "binds"}, {"measurement": "binding", "setting": "[9]", "result": "no binding"}]}
{"molecule": "NCoR1, endogenous mouse (from UniProt Q60974 1-2453)", "values": [{"measurement": "binding", "setting": "[10]", "result": "binds"}]}
{"molecule": "acetyl-CoA synthetase short-chain family member 2 (ACSS2), endogenous mouse (from UniProt Q9QXG4 1-701)", "values": [{"measurement": "binding", "setting": "[11]", "result": "binds"}]}
{"molecule": "B1", "values": [{"measurement": "binding", "setting": "[10]", "result": "binds"}]}
